Measurements as given in US20170050988A1 (priority 2013, published 2017).
For some assays here: Some results come without the dose or concentration used. For some assays here: Strings that start with PEPTIDE1 are HELM notation: dots part the residues, brackets hold end groups and non-standard residues.

Experiments:
pig articular cartilage = assay: Ex vivo MRI investigation with pig articular cartilage explants (T1); conditions: contrast agent incubated cartilage
[1] = general procedure: Fmoc solid-phase peptide synthesis; conditions: conjugation step

Substance	T1 (pig articular cartilage)	conjugation yield [1]
AcWYRGRL-DOTA-[Gd3+] [HHY-316Gd]	344 ms	–
PEPTIDE1{[ac].W.Y.R.G.R.L}|PEPTIDE2{[ac].W.Y.R.G.R.L}|PEPTIDE3{[ac].W.Y.R.G.R.L}|CHEM1{[DOTAM-L4]}|CHEM2{[Cy55]}$PEPTIDE1,CHEM1,7:R2-1:R1|PEPTIDE2,CHEM1,7:R2-1:R2|PEPTIDE3,CHEM1,7:R2-1:R3|CHEM2,CHEM1,1:R2-1:R4$$$V2.0	–	75%
